Reference: US9707229B2, “Compositions and methods for treating an infection” (CMPD LICENSING, LLC, priority 2015, dated 2017)

System: Mycoplasma pneumoniae
Test: Expected efficacy of antibiotic agents
Type: cell-based
Conditions: Gram: n/a

For `O=C(O)c1cn(C2CC2)c2cc(N3CCNCC3)c(F)cc2c1=O` [Ciprofloxacin], the “efficacy against Mycoplasma pneumoniae” value was “yes”.
